We go through 59 compounds from PubChem BioAssay AID2685 (National Center for Advancing Translational Sciences (NCATS), 2010).

The list shows a part of the results. Further columns of the screen follow, without active or inactive calls. The list favours compounds with an active or inconclusive main result. Potencies come from curve fits of mixed quality, noted in brackets.

The test in a line: qHTS Assay for Lipid Storage Modulators in Drosophila S3 Cells.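 As to cell number change: cells counted by Cell Tracker Red CMTPX staining in the red channel.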 Particulars: BODIPY lipid droplet fluorescence, 18-24 h; for cell number change: measured here: cell count max response, cells fed with added oleic acid. In a few lines:
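Drosophila S3 cells loaded with oleic acid (400 uM, as added) and compounds at several concentrations; lipid droplets imaged by 488-nm laser-scanning cytometry, 500–530 nm intensity and object ratio to cell channel. Percent activity normalized to 20 uM Triacsin C.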

Setting [1] is: measured here: lipid fluorescence (Fed channel) AC50, cells fed with added oleic acid.
Where [2] appears, read: measured here: cell number channel AC50, cells fed with added oleic acid.

For the compound `CC(C)OP(=O)(OC(C)C)C(Nc1ccc([N+](=O)[O-])cc1)c1cccc([N+](=O)[O-])c1` (stereo not given), the cell number change came out at 8.77%.

As to `COc1ccc([C@H]2CC(=O)C=C(c3ccc4c(c3)OCCO4)C2)cc1`, the cell number change amounted to 8.42%. For the same compound, the AC50 under setting [1] is 0.00517 µM [rising, full curve, poor fit].

Take `O=C(Cc1ccc([N+](=O)[O-])cc1)N1CCc2ccccc2C1`: the cell number change amounted to 10.9%. The AC50 under setting [1] is 29.1 µM [rising, single point].

For the compound `COCC(=O)Nc1nnc(-c2cccs2)s1`, the cell number change is -14.6%. Besides, the AC50 under setting [2] was 0.184 µM [falling, full curve, poor fit].

As for `Cc1cccc2sc(N(CCCN(C)C)C(=O)CCc3ccccc3)nc12`, the cell number change was -39.9%. For the same compound, under setting [2], the AC50 was 25.9 µM [falling, single point]. For the same compound, the concentration at half-maximal activity (AC50) under setting [1] was 16.4 µM [falling, single point].

Consider `O=[N+]([O-])c1cc(/C=N\Nc2ccccn2)ccc1Cl`, for which the cell number change is -3.57%. Under setting [1], the AC50 is 6.51 µM [rising, single point].

As to `COc1ccc(CCNC(=O)CCNS(=O)(=O)c2cccc3nonc23)cc1OC`, the cell number change was 67.3%. Further, under setting [2], the AC50 was 20.6 µM [rising, partial curve]. The AC50 under setting [1] is 4.61 µM [rising, single point].

Regarding `COc1ccccc1CNC(=O)COC(=O)Cn1cnc2ccccc21`, the cell number change is -39.1%. In addition, the AC50 under setting [2] was 8.2 µM [falling, partial curve].

With `CC1CCCCC1NC(=O)CN(C)S(=O)(=O)c1cccc2cccnc12` (stereo not given), the cell number change was 37.8%. Also, under setting [2], the AC50 was 18.4 µM [rising, single point]. Also, the AC50 under setting [1] is 23.1 µM [rising, single point].

Consider `CN(Cc1cccs1)C(=O)CCc1ccc(S(=O)(=O)N2CCOCC2)cc1`, for which the AC50 under setting [2] is 0.58 µM [falling, single point].

As to `COC(=O)C1=C(N)N(c2ccc(F)cc2)C2=C(C(=O)CCC2)C1c1ccc2c(c1)OCO2` (stereo not given), the cell number change stood at 7.42%. Also, the AC50 under setting [1] was 0.00731 µM [rising, full curve, poor fit].

Regarding `CC1CC(C)CN(CCCNC(=O)c2cc3c(=O)[nH]c4ccccc4c3n2C)C1` (stereo not given), the cell number change is -28.5%. Moreover, the AC50 under setting [1] is 0.517 µM [falling, full curve].

As for `CC1CN(S(=O)(=O)c2cccc(C(=O)Nc3ccc(S(=O)(=O)Nc4ncccn4)cc3)c2)CC(C)O1` (stereo not given), the cell number change was determined as 28.2%. For the same compound, the AC50 under setting [2] is 0.461 µM [falling, full curve, poor fit].

For the compound `CCN(CC)S(=O)(=O)c1ccc(NN=c2c(=O)c3ccccc3c2=O)cc1`, the cell number change is 23.4%. Also, under setting [1], the AC50 is 3.66 µM [falling, partial curve, poor fit].

As to `Cc1ccccc1N(C(=O)CCC(=O)Nc1ccccn1)C(C(=O)NC(C)C)c1ccc(O)cc1` (stereo not given), the cell number change came out at 23.4%. The AC50 under setting [1] is 0.116 µM [rising, single point].

In the case of `Cc1ccccc1CNC(=O)C(=O)NCCC1CCCCN1S(=O)(=O)c1ccccc1` (stereo not given), under setting [1], the AC50 is 2.91 µM [falling, partial curve, poor fit].

Consider `CCOC(=O)C1=C(C)NC2=C(C(=O)c3ccccc32)C1c1ccc(O)cc1` (stereo not given), for which the cell number change worked out at 1.21%. Further, the AC50 under setting [1] is 0.517 µM [rising, full curve].

Consider `COCCNC(=O)c1ccccc1-c1nc(-c2ccccc2OC)no1`, for which the cell number change amounted to 8.89%.

Take `O=C1C=C(NCC2CCCO2)CC(c2ccccc2)C1` (stereo not given): the cell number change was -1.75%. Moreover, the AC50 under setting [1] was 0.411 µM [falling, full curve, poor fit].

With `O=C(CSc1nccc(=O)[nH]1)NCc1ccc2c(c1)OCO2`, the cell number change was 32.6%. Besides, the AC50 under setting [2] is 29.1 µM [rising, single point]. In addition, the AC50 under setting [1] was 0.82 µM [rising, single point].

Regarding `COC(=O)c1cccc(N2C(=O)c3ccccc3S2(=O)=O)c1`, the cell number change is -1.36%.

On to `O=C(CCc1ccccc1)NNC(=O)COc1ccccc1Cl`, for which the cell number change turned out to be 3.95%.

On to `CN1CCC(N(C)C(=O)c2ccc(Cl)c(S(=O)(=O)N3CCOCC3)c2)CC1`, for which the concentration at half-maximal activity (AC50) under setting [1] was 6.51 µM [falling, single point].

On to `CCOC(=O)N/N=C\c1ccc(OC(=O)c2ccco2)cc1`, for which the cell number change is -40%. For the same compound, the AC50 under setting [2] is 32.6 µM [falling, single point].

With `C=CCNC(=O)NC(=S)c1ccccc1`, the cell number change is 17.1%. In addition, the AC50 under setting [1] was 3.26 µM [rising, single point].

With `CCn1c(=O)cc(OCC(=O)Nc2nc(C)cs2)c2ccccc21`, the cell number change worked out at 47.3%. Further, under setting [2], the AC50 was 7.31 µM [rising, single point].

On to `NC1=NC(=O)/C(=C/c2c(OS(=O)(=O)c3ccc(Cl)cc3)ccc3ccccc23)S1`, for which the cell number change worked out at 48.1%. In addition, under setting [2], the AC50 was 14.6 µM [rising, partial curve]. Further, the concentration at half-maximal activity (AC50) under setting [1] is 25.9 µM [rising, single point].

Consider `COC(=O)c1[nH]c2ccccc2c1NC(=O)CN1CCCCCC1`, for which the cell number change was -43.3%. Moreover, the AC50 under setting [2] was 8.2 µM [falling, partial curve, poor fit]. In addition, under setting [1], the AC50 is 0.00461 µM [rising, full curve, poor fit].

For `O=C(Nc1ccc(F)cc1)NC1CCCCC1`, under setting [1], the AC50 is 0.82 µM [falling, full curve].

Regarding `Brc1c(C[n+]2ccccc2)nc2ccccn12`, the cell number change was found to be 7.13%. The AC50 under setting [2] was 6.51 µM [rising, single point]. Further, under setting [1], the AC50 was 2.59 µM [rising, single point].

Consider `CCCNC(=S)NCc1ccc(Cl)cc1`, for which the cell number change is -4.6%. In addition, the AC50 under setting [2] was 5.17 µM [falling, single point].

As for `COc1ccc(NC(=O)CSc2nc3ccccc3c(=O)n2CCCN2CCOCC2)c(OC)c1`, the cell number change was -17.5%. For the same compound, the AC50 under setting [1] was 0.013 µM [falling, full curve, poor fit].

For the compound `CN(CC(=O)Nc1ccccc1Cl)C(=O)c1ccc(N2C(=O)CCC2=O)cc1`, the cell number change was -6.73%. Moreover, the AC50 under setting [1] is 1.46 µM [falling, full curve].

In the case of `COC(=O)C1=C(C)NC(=S)NC1c1ccc(-c2ccccc2C(=O)OC)o1` (stereo not given), the cell number change is 34.1%. Further, under setting [2], the AC50 is 5.17 µM [rising, full curve, poor fit].

For the compound `CCCCc1ccc(NC(=S)NCc2ccccc2OC)cc1`, the cell number change was -45.4%. Moreover, the AC50 under setting [2] is 14.6 µM [falling, single point]. Besides, the AC50 under setting [1] was 29.1 µM [falling, single point].

For `CC(C)c1cccc(C(C)C)c1NC(=O)CN1CCCC1`, the cell number change was -2.25%. For the same compound, the AC50 under setting [1] was 6.51 µM [rising, single point].

Regarding `CCc1ccc(N2CC(C(=O)OCC(=O)Nc3ccc(C#N)cc3)CC2=O)cc1` (stereo not given), the cell number change is -11.2%. Further, under setting [1], the AC50 is 2.31 µM [rising, full curve].

Take `N#Cc1ccc(OCC(=O)Nc2nc(-c3ccncc3)cs2)cc1`: the cell number change was found to be 1.97%.

In the case of `O=C(c1ccccc1)c1sc(N2CCOCC2)nc1-c1ccccc1`, the cell number change was 34.2%. Besides, the AC50 under setting [2] was 0.326 µM [rising, full curve, poor fit].

Regarding `CCc1ccccc1NC(=O)C1CCCN1C(=O)NCc1ccccc1` (stereo not given), the cell number change was found to be 2.25%. In addition, under setting [1], the half-maximal activity concentration (AC50) was 0.58 µM [falling, single point].

For `CCn1c(/C=C2/C(=O)N(C)c3ccccc32)nc2ccccc2c1=O`, the cell number change was -59.1%. Also, under setting [2], the AC50 is 14.6 µM [falling, partial curve, poor fit].

As for `CCN(CC)CCCNC(=S)N(CCO)Cc1cc2cc3c(cc2[nH]c1=O)OCO3`, the AC50 under setting [1] is 6.51 µM [falling, single point].

`CCCN1CCN(CC(=O)Nc2nnc(CC)s2)CC1`: the cell number change was 8.79%.

Take `CCC(=O)Nc1ccc(C(=O)NNC(=O)c2ccc([N+](=O)[O-])cc2)cc1`: the cell number change stood at 26.8%. Besides, under setting [1], the AC50 is 0.58 µM [rising, single point].

Regarding `O=S(=O)(N/N=C/c1ccc(OC2CSC2)cc1)c1ccccc1`, the cell number change was 0.253%. For the same compound, the AC50 under setting [1] was 14.6 µM [falling, single point].

`O=C(CSc1nnc(C2CC2)n1-c1ccccc1)Nc1ccc(N2CCOCC2)cc1`: the cell number change came to 7.32%. In addition, the AC50 under setting [1] is 2.31 µM [rising, partial curve].

On to `O=C(Cn1c(=O)sc2ccccc21)NCCOc1ccccc1F`, for which the cell number change stood at 23.9%. For the same compound, the AC50 under setting [1] was 25.9 µM [rising, single point].

Regarding `COc1ccccc1-c1nnc2n1N=C(C)CS2`, the cell number change was 18.7%. Moreover, the AC50 under setting [1] is 16.4 µM [rising, partial curve].

Turning to `C=CCSC1=N/C(=C\c2ccc(C)o2)C(=O)S1`, the AC50 under setting [1] was 5.17 µM [falling, full curve, poor fit].

For `COc1cc(N2C(=O)c3ccccc3C2=O)c(Cl)cc1C(=O)OCC(=O)N(C)C`, the cell number change was -21.2%. For the same compound, the AC50 under setting [1] was 10 µM [falling, partial curve, poor fit].

For the compound `CCOc1cc(C(=O)N(C)c2ccccc2)cc(OCC)c1OCC`, the AC50 reads like this: under setting [2], 4.11 µM [rising, single point]; under setting [1], 6.51 µM [rising, single point].

Turning to `Cc1ccc2cc(CCNC(=O)c3ccc4c(c3)OCO4)c(=O)[nH]c2c1C`, the AC50 reads like this: under setting [2], 0.146 µM [rising, full curve, poor fit]; under setting [1], 0.231 µM [rising, full curve, poor fit].

With `COc1ccc(C(C#N)c2ccc(Cl)nn2)cc1` (stereo not given), the cell number change is -34.6%. Further, the AC50 under setting [2] was 0.103 µM [rising, full curve, poor fit].

On to `Clc1ccc(OCCCCN2CCc3ccccc3C2)cc1`, for which the cell number change was -14%. Besides, the AC50 under setting [1] was 6.51 µM [rising, partial curve, poor fit].

`Cc1cc(C(=O)N/N=C/c2ccc3ccccc3c2)n[nH]1`: the cell number change is -1.42%. Also, under setting [1], the AC50 is 29.1 µM [rising, single point].

For `CCOC(=O)c1c(C)[nH]c(C(=O)Nc2ccc3c(c2)OCO3)c1C`, the cell number change was 20.6%. Besides, under setting [2], the AC50 is 0.146 µM [rising, full curve, poor fit]. Under setting [1], the AC50 was 0.731 µM [rising, full curve, poor fit].

Turning to `Cc1ccc(S(=O)(=O)N2CCN(CC(=O)Nc3ccnn3C3CCCC3)CC2)cc1`, the cell number change was -0.683%. The AC50 under setting [1] is 0.0058 µM [falling, full curve, poor fit].

Take `O=C1CCCN1CCCNC(=S)Nc1ccc(F)c(Cl)c1`: the cell number change is 72.3%. Under setting [2], the AC50 was 29.1 µM [rising, single point].

In the case of `CC(=O)c1cccc(N(CC(=O)N2CCOCC2)S(C)(=O)=O)c1`, the cell number change was -15.1%. In addition, under setting [1], the AC50 is 2.59 µM [falling, full curve, poor fit].
